This experiment concerns HEK293A TEAD-LUC reporter. The experiment is described as follows: TEAD-luciferase reporter activity (YAP activation), robust Z score vs plate; higher = stronger YAP/TEAD activation. The conditions noted are these: 24 h. Background: A reporter such as luciferase makes a cellular process visible.

The other results are listed elsewhere or left out. Repeats in this data set agree poorly, so a single value says little.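 In a drug-repurposing library screen, luminescence reads luciferase driven by eight TEAD-binding elements, stably integrated into human kidney-derived cells. Compounds scoring over five robust Z scores above the plate mean are called hits.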

With `N#C[C@@H]1CCCN1C(=O)CN[C@H]1CC[C@H](C(=O)N2CCOCC2)CC1`, the TEAD-luciferase reporter activity runs as follows: (compound concentration: 200 nM) inactive: 0.0681; (compound concentration: 2 uM) inactive: -1.14; (compound concentration: 10 uM) inactive: -0.801.

`Cc1oc2nc3c(c(NC(=O)CN4CCCC4=O)c2c1C)CCCC3` [coluracetam]: the TEAD-luciferase reporter activity by setting is: (compound concentration: 200 nM) inactive: -2.21; (compound concentration: 2 uM) inactive: -0.504; (compound concentration: 10 uM) inactive: -0.395.

On to `C=C=CCNCCCCNCC=C=C`, for which the TEAD-luciferase reporter activity (compound concentration: 200 nM) is inactive: 2.95, the TEAD-luciferase reporter activity (compound concentration: 2 uM) was inactive: 3.29 and the TEAD-luciferase reporter activity (compound concentration: 10 uM) was inactive: 2.03.

Turning to `CN(C)C1=NCC(c2cc3ccccc3o2)C1` (stereo not given) [prifuroline], the TEAD-luciferase reporter activity was inactive: -1.65 (compound concentration: 200 nM), inactive: -1.28 (compound concentration: 2 uM) and inactive: 0.165 (compound concentration: 10 uM).

Take `CN(C)CCCSCC(=O)C1(c2ccc(Cl)c(Cl)c2)CCC1`: the TEAD-luciferase reporter activity by setting is: (compound concentration: 200 nM) inactive: -1.04; (compound concentration: 2 uM) inactive: 0.155; (compound concentration: 10 uM) inactive: 0.772.

Turning to `CCCCCCCCCCCC(=O)N(C)Cc1c(-c2ccc(Cl)cc2)nc2ccccn12`, the TEAD-luciferase reporter activity reads like this: (compound concentration: 200 nM) inactive: 0.917; (compound concentration: 2 uM) inactive: -0.11; (compound concentration: 10 uM) inactive: -0.0711.

As to `Cn1c2ccc(F)cc2c2c(C(=O)N3CCCC3)cn(-c3ccccc3)c(=O)c21`, the TEAD-luciferase reporter activity was inactive: -0.946 (compound concentration: 200 nM), inactive: 0.1 (compound concentration: 2 uM) and inactive: 1.66 (compound concentration: 10 uM).

Turning to `Nc1ncc(C#Cc2ccc(Cl)cc2)c(N[C@H]2CC[C@H](O)CC2)n1`, the TEAD-luciferase reporter activity reads like this: (compound concentration: 200 nM) inactive: 0.646; (compound concentration: 2 uM) inactive: -1.64; (compound concentration: 10 uM) inactive: -0.196.

With `CO[C@@]1(NC(=O)CSC[C@@H](N)C(=O)O)C(=O)N2C(C(=O)O)=C(CSc3nnnn3C)CS[C@@H]21` [Cefminox Sodium Heptahydrate], the TEAD-luciferase reporter activity reads like this: (compound concentration: 200 nM) inactive: -0.886; (compound concentration: 10 uM) inactive: -0.392.

Take `CO[C@@]1(NC(=O)CSC[C@@H](N)C(=O)O)C(=O)N2C(C(=O)O)=C(CSc3nnnn3C)CS[C@@H]21` [_:_2016-03-02: cefminox]: the TEAD-luciferase reporter activity (compound concentration: 2 uM) is inactive: -0.674.

For `CC(C)C[C@H](NC(=O)[C@@H]1CCCN1)C(=O)N[C@@H](C)C(=O)N[C@@H](CCCNC(=N)N)C(=O)N[C@H](C(=O)N[C@@H](CC(C)C)C(=O)N[C@@H](CO)C(=O)N[C@H](C(=O)N[C@@H](C)C(=O)NCC(=O)N[C@@H](CC(C)C)C(=O)N1CCC[C@H]1C(=O)NCC(=O)N[C@@H](CCCCN)C(=O)N[C@@H](CCCCN)C(=O)O)C(C)C)[C@@H](C)O` [Syntide-2], the TEAD-luciferase reporter activity (compound concentration: 200 nM) was inactive: -3.19, the TEAD-luciferase reporter activity (compound concentration: 2 uM) was inactive: -1.17 and the TEAD-luciferase reporter activity (compound concentration: 10 uM) is inactive: -2.11.

Consider `Cc1cccc(-c2nn3c(c2-c2ccnc4ccc(C(N)=O)cc24)CCC3)n1`, for which the TEAD-luciferase reporter activity (compound concentration: 200 nM) is inactive: 0.0791, the TEAD-luciferase reporter activity (compound concentration: 2 uM) was inactive: -0.466 and the TEAD-luciferase reporter activity (compound concentration: 10 uM) was inactive: -1.26.

In the case of `CC(=O)NCCCC(=O)OC1c2ccccc2C(=O)N1c1ccc2ccc(Cl)nc2n1` (stereo not given), the TEAD-luciferase reporter activity runs as follows: (compound concentration: 200 nM) inactive: -0.731; (compound concentration: 2 uM) inactive: -0.208; (compound concentration: 10 uM) inactive: -1.33.

With `C1=C(c2ccccc2)C(c2ccc(OCCN3CCCCC3)cc2)Oc2ccccc21` (stereo not given), the TEAD-luciferase reporter activity (compound concentration: 200 nM) was inactive: -1.54, the TEAD-luciferase reporter activity (compound concentration: 2 uM) is inactive: 1.14 and the TEAD-luciferase reporter activity (compound concentration: 10 uM) was inactive: 0.939.

Turning to `O=C(CN1CCN(Cc2ccc3c(c2)OCO3)CC1)N1c2ccccc2Sc2ccccc21` [fenoverine], the TEAD-luciferase reporter activity is inactive: -1.46 (compound concentration: 200 nM), inactive: -2.36 (compound concentration: 2 uM) and inactive: -1.6 (compound concentration: 10 uM).

With `CC(C)(C)NCc1ccc(Nc2ccnc3cc(Cl)ccc23)cc1O` [N-tert-Butylisoquine], the TEAD-luciferase reporter activity is inactive: -1.06 (compound concentration: 200 nM), inactive: 1.94 (compound concentration: 2 uM) and inactive: -0.69 (compound concentration: 10 uM).

On to `CCN(C)C(=O)c1ccc2c(c1)NC(=O)/C2=C(/Nc1ccc(CN2CCCCC2)cc1)c1ccccc1`, for which the TEAD-luciferase reporter activity (compound concentration: 200 nM) was inactive: 0.984, the TEAD-luciferase reporter activity (compound concentration: 2 uM) is inactive: -0.82 and the TEAD-luciferase reporter activity (compound concentration: 10 uM) was inactive: 0.0509.

`CC(C)N1CCN(c2ccc(N3CCN(c4ccc(OC[C@@H]5OC[C@](Cn6cncn6)(c6ccc(F)cc6F)O5)cc4)CC3)cc2)C1=O`: the TEAD-luciferase reporter activity (compound concentration: 200 nM) is inactive: -0.644, the TEAD-luciferase reporter activity (compound concentration: 2 uM) is inactive: -1.63 and the TEAD-luciferase reporter activity (compound concentration: 10 uM) was inactive: -0.456.

On to `O=C(CCCCC(=O)Nc1scc(-c2cccs2)c1C(=O)O)Nc1scc(-c2cccs2)c1C(=O)O`, for which the TEAD-luciferase reporter activity runs as follows: (compound concentration: 200 nM) inactive: -1.75; (compound concentration: 2 uM) inactive: 1.25; (compound concentration: 10 uM) inactive: 2.21.

`CC[C@H]1OC(=O)C[C@@H](O)[C@H](C)[C@@H](O[C@@H]2O[C@H](C)[C@@H](O)[C@H](N(C)C)[C@H]2O)[C@@H](CCN2CCCCC2)C[C@@H](C)C(=O)/C=C/C(C)=C/[C@@H]1CN1CCCCC1` [Tildipirosin]: the TEAD-luciferase reporter activity runs as follows: (compound concentration: 200 nM) inactive: -0.173; (compound concentration: 2 uM) inactive: -0.243; (compound concentration: 10 uM) inactive: -0.283.

Take `CCCCC1(COC(=O)CCC(=O)O)C(=O)N(c2ccccc2)N(c2ccccc2)C1=O`: the TEAD-luciferase reporter activity is inactive: -1.9 (compound concentration: 200 nM), inactive: 0.507 (compound concentration: 2 uM) and inactive: 1.28 (compound concentration: 10 uM).

Take `COc1ccc(CCNCCC(=O)N2CCCSc3ccccc32)cc1OC`: the TEAD-luciferase reporter activity runs as follows: (compound concentration: 200 nM) inactive: 1.23; (compound concentration: 2 uM) inactive: 1.99; (compound concentration: 10 uM) inactive: -0.2.

Consider `O=C(Cc1ccc(O)cc1)Nc1ccc2cnn(CCN3CCCC3)c2c1`, for which the TEAD-luciferase reporter activity is, setting by setting: (compound concentration: 200 nM) inactive: -1.85; (compound concentration: 2 uM) inactive: 1.01; (compound concentration: 10 uM) inactive: 0.13.

In the case of `Nc1ncnc2c1ncn2C1CCC(O)C1` (stereo not given), the TEAD-luciferase reporter activity reads like this: (compound concentration: 200 nM) inactive: -0.861; (compound concentration: 2 uM) inactive: -1.06; (compound concentration: 10 uM) inactive: 0.721.

Consider `CC[C@@]12C=C(C(=O)O)n3c4c(c5ccccc53)CCN(CCC1)[C@H]42`, for which the TEAD-luciferase reporter activity reads like this: (compound concentration: 200 nM) inactive: -0.242; (compound concentration: 2 uM) inactive: -1.85; (compound concentration: 10 uM) inactive: 0.967.

Turning to `Cc1cc(Nc2nc(C(O)c3ccc(F)cc3)nc3ccccc23)n[nH]1` (stereo not given), the TEAD-luciferase reporter activity reads like this: (compound concentration: 200 nM) inactive: -1.89; (compound concentration: 2 uM) inactive: -1.81; (compound concentration: 10 uM) inactive: -1.47.

In the case of `CN(CCC1c2ccccc2COc2ccccc21)CC(O)COc1ccccc1` (stereo not given), the TEAD-luciferase reporter activity runs as follows: (compound concentration: 200 nM) inactive: -0.673; (compound concentration: 2 uM) inactive: -0.546; (compound concentration: 10 uM) inactive: -1.52.

Take `CCCc1nc2ccc(N(CCC)C(=O)c3ccccc3)cc2c(=O)n1Cc1ccc(-c2ccccc2-c2nnn[nH]2)cc1`: the TEAD-luciferase reporter activity was inactive: -1.28 (compound concentration: 200 nM), inactive: -1.16 (compound concentration: 2 uM) and inactive: -0.464 (compound concentration: 10 uM).

In the case of `NS(=O)(=O)c1cc2c(cc1Cl)NCNS2(=O)=O`, the TEAD-luciferase reporter activity (compound concentration: 200 nM) is inactive: 3.38 and the TEAD-luciferase reporter activity (compound concentration: 10 uM) was inactive: 0.95.

On to `NS(=O)(=O)c1cc2c(cc1Cl)NCNS2(=O)=O` [hydrochlorothiazide, Elan], for which the TEAD-luciferase reporter activity (compound concentration: 2 uM) was inactive: 2.68.

For the compound `CC(C)(C)c1cc(N2CCCC2=O)cc(C(C)(C)C)c1O`, the TEAD-luciferase reporter activity is, setting by setting: (compound concentration: 200 nM) inactive: -1.68; (compound concentration: 2 uM) inactive: -0.397; (compound concentration: 10 uM) inactive: 0.736.

As to `CC[C@H](C)[C@H](NC(=O)[C@H](CCCCN)NC(=O)[C@H](CCCCN)NC(=O)[C@H](Cc1ccccc1)NC(=O)[C@H](CC(C)C)NC(=O)[C@H](CCCCN)NC(=O)[C@@H](N)CCCCN)C(=O)N[C@@H](CC(C)C)C(=O)N[C@@H](CCCCN)C(=O)N[C@@H](CCCCN)C(=O)N[C@@H](CC(C)C)C(N)=O`, the TEAD-luciferase reporter activity (compound concentration: 200 nM) was inactive: 0.139, the TEAD-luciferase reporter activity (compound concentration: 2 uM) is inactive: -0.722 and the TEAD-luciferase reporter activity (compound concentration: 10 uM) is inactive: -0.107.

Values taken from the supplement of paper PMC10735217.
